Data as given in the supplement of paper PMC12823440, “Inhibitors supercharge kinase turnover through native proteolytic circuits” (Nature, 2025).
Where a name gives a salt, the structure may show the parent alone. The list shows a part of the results. Hit calls seldom repeat between salt and free forms of one compound.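 Kinases were expressed as nanoluciferase fusions in K562 cells and luminescence was read every 4 h between 2 and 18 h as percent of control, DMSO set to 100% and a positive control to 0%. A time point counts as decreased when the signal drops significantly (2 sigma). The hit call is the authors' own, does not follow from the count of time points alone, and its rule is not shown.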

By UniProt entry, the sequences of proteins in these tests, tags left out. Where a name states a change or a piece, a line headed by the entry shows the natural chain unless it says otherwise.
UniProt Q9UM73: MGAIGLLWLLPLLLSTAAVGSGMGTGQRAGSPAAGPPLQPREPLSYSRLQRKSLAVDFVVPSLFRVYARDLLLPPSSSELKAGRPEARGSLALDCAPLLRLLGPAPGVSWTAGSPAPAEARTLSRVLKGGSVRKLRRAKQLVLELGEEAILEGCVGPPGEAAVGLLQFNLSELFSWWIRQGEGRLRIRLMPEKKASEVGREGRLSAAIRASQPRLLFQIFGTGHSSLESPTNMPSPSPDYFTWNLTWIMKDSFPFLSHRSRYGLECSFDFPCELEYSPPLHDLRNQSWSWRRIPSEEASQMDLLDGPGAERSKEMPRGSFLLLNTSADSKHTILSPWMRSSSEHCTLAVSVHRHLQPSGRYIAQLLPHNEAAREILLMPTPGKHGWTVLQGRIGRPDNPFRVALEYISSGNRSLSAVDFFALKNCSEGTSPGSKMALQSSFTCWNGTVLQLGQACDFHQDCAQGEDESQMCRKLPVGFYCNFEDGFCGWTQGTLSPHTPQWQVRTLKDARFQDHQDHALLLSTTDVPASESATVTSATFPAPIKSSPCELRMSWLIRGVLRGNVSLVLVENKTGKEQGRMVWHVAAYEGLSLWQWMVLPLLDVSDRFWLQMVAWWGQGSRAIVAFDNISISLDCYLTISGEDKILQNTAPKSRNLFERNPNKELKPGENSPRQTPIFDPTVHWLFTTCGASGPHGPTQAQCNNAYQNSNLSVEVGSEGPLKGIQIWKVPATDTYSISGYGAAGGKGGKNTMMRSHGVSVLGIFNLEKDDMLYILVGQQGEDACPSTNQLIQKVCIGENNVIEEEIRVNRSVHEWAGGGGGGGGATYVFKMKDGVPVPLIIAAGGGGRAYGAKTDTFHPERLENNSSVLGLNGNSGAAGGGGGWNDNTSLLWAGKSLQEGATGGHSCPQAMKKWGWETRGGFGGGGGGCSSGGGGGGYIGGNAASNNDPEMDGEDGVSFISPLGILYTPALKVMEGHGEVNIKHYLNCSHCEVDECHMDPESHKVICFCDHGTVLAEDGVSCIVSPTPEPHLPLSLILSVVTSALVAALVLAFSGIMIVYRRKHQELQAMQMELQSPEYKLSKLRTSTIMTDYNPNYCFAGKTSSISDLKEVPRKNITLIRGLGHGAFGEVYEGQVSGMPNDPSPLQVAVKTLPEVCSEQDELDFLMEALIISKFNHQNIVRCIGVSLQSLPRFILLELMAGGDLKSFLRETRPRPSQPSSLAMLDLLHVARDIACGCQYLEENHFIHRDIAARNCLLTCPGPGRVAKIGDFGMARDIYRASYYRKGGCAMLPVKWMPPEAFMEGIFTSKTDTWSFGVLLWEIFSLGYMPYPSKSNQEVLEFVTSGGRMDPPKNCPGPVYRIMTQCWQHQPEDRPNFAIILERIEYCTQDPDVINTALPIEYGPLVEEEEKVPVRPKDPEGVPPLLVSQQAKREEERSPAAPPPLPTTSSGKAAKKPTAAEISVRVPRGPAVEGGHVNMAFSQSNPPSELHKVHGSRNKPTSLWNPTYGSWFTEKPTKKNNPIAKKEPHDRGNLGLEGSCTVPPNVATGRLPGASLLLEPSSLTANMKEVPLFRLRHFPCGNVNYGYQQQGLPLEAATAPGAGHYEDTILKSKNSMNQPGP
UniProt O14965: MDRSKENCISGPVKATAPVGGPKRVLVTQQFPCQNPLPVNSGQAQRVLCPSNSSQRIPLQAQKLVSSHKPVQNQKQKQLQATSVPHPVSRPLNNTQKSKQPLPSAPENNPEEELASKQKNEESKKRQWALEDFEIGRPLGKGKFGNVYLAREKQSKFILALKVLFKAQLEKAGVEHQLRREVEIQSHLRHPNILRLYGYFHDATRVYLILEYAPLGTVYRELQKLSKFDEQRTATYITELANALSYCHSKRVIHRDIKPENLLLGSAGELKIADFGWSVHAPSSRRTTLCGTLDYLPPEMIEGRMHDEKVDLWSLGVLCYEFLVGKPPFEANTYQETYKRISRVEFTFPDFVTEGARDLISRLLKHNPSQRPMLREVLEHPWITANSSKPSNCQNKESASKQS
UniProt Q9UQB9: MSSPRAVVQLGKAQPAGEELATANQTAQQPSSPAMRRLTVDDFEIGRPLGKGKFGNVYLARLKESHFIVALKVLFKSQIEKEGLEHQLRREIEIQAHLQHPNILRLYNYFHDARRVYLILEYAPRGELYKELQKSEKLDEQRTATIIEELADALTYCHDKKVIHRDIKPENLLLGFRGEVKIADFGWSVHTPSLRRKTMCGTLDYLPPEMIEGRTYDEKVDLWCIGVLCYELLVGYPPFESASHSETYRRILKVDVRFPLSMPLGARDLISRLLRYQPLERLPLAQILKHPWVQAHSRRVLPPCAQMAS
UniProt P51451: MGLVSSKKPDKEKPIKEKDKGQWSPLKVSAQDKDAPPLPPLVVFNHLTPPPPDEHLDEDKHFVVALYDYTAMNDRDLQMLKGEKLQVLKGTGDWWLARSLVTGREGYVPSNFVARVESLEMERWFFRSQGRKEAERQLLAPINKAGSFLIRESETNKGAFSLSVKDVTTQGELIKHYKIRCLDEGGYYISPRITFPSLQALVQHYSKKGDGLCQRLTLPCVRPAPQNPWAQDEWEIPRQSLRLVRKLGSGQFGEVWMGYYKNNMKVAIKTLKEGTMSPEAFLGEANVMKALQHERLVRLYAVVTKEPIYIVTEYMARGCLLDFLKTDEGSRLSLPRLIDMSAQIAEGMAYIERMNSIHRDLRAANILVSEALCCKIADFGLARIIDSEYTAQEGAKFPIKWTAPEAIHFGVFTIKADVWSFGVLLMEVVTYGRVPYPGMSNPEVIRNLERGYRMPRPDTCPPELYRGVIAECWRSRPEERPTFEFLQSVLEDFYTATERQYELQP
UniProt P51813: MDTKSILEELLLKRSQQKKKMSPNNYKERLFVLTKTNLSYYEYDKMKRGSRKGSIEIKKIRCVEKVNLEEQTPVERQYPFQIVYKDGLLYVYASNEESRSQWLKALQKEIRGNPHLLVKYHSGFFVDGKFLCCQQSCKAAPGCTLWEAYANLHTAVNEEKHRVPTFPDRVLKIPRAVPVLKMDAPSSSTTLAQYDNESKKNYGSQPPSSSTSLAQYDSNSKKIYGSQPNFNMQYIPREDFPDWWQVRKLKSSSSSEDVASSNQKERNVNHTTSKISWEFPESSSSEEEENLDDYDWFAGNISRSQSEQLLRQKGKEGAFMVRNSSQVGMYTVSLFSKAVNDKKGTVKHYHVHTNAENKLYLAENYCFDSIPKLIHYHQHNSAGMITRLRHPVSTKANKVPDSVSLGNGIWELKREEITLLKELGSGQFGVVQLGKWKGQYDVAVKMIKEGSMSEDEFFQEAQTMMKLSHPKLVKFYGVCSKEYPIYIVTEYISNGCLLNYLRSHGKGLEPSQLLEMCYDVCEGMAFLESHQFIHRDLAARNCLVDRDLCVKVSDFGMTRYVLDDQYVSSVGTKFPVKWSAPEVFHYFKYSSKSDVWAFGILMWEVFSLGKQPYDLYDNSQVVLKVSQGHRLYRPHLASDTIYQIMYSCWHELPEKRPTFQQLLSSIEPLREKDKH
UniProt Q13555: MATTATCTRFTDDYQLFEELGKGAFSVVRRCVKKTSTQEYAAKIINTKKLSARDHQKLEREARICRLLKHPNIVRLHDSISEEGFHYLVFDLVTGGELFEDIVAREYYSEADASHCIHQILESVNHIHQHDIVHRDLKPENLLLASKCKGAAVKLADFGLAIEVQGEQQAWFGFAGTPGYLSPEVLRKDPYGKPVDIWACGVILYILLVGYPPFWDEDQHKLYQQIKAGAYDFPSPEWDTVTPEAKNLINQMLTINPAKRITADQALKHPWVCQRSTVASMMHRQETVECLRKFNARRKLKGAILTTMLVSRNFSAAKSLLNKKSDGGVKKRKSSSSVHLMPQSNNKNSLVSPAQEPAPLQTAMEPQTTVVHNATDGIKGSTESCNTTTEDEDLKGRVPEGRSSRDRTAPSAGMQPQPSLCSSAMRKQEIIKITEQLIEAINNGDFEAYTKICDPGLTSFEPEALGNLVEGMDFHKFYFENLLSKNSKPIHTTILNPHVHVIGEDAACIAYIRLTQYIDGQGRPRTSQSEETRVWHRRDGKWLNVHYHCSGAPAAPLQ
UniProt Q15131: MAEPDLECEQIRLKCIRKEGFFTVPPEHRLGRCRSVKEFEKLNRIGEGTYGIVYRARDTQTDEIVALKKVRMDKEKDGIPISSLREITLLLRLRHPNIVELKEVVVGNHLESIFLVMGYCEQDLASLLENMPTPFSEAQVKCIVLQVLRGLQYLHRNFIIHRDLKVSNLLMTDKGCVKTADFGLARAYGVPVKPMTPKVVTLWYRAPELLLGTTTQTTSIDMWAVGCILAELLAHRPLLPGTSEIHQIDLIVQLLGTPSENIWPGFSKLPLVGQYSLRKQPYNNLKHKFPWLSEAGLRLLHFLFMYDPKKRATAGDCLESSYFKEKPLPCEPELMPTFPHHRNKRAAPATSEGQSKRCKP
UniProt Q00526: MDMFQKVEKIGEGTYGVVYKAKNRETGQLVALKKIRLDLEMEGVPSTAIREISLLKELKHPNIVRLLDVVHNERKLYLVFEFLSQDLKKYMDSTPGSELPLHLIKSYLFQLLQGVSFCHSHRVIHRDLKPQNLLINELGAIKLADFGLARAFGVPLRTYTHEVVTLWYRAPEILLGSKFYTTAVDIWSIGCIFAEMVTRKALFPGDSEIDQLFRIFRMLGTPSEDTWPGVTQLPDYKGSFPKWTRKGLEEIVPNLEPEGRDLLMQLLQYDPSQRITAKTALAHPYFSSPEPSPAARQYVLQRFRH
UniProt Q00534, whole entry: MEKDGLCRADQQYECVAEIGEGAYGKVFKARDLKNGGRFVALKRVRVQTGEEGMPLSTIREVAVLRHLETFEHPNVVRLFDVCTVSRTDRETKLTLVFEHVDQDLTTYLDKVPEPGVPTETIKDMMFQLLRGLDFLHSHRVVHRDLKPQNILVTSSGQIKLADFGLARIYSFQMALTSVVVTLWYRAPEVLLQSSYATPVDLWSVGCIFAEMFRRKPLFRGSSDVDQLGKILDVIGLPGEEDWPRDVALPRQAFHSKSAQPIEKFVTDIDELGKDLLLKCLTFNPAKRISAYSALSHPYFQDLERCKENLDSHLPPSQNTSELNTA
UniProt P07333, whole entry: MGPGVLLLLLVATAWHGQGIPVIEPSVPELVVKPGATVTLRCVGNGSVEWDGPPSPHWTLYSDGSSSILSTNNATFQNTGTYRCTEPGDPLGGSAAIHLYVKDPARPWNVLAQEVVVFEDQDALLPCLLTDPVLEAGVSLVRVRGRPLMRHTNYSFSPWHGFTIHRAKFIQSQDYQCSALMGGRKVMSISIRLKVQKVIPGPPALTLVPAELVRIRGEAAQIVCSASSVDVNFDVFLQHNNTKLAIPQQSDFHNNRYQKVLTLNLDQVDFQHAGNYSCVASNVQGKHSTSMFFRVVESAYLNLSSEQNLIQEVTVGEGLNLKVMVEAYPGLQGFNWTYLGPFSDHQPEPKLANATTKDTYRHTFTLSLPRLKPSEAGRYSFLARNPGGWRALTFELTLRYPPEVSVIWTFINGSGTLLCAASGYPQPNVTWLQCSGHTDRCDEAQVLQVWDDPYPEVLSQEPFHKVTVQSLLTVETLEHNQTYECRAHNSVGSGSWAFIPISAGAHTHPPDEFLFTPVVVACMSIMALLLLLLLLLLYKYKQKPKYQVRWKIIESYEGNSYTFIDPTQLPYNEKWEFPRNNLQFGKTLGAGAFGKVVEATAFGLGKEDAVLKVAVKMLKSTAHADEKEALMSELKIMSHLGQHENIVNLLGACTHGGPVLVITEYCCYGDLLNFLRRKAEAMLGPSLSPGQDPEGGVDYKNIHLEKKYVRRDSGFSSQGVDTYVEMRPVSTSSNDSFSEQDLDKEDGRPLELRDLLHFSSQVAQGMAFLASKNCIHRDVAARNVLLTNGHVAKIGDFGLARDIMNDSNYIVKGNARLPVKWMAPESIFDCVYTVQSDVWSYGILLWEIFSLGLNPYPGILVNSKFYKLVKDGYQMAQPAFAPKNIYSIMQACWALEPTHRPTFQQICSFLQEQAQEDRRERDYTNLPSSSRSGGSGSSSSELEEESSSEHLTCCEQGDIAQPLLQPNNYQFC
UniProt P41240: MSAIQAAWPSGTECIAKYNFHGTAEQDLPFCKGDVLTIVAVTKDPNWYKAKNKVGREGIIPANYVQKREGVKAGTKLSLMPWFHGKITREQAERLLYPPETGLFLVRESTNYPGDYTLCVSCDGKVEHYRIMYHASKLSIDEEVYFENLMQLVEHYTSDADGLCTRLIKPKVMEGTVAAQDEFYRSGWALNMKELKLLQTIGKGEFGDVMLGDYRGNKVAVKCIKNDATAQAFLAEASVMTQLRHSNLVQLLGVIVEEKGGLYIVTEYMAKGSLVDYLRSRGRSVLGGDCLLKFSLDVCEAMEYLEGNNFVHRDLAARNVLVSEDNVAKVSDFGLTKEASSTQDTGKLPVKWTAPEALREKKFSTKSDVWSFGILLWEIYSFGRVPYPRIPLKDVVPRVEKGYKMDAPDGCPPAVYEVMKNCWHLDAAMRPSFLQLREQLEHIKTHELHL

How the values were obtained:
Assay in all cases: number of time points (of 5) at which kinase-Nluc abundance scored as decreased, DMSO-normalised (count); higher = more persistent destabilization
Settings in all cases: K562; 2-18 h
ALK = ALK (UniProt Q9UM73)
ARAF = ARAF (UniProt P10398)
AURKA = AURKA (UniProt O14965)
AURKB = AURKB (UniProt Q96GD4)
AURKC = AURKC (UniProt Q9UQB9)
BLK = BLK (UniProt P51451)
BMX = BMX (UniProt P51813)
BRAF = BRAF (UniProt P15056)
BRAF_V600E = test system: BRAF_V600E
BTK = BTK (UniProt Q06187)
CAMK2A = CAMK2A (UniProt Q9UQM7)
CAMK2G = CAMK2G (UniProt Q13555)
CDK10 = CDK10 (UniProt Q15131)
CDK2 = CDK2 (UniProt P24941)
CDK3 = CDK3 (UniProt Q00526)
CDK5 = CDK5 (UniProt Q00535)
CDK6 = CDK6 (UniProt Q00534)
CHEK2 = CHEK2 (UniProt O96017)
CSF1R = CSF1R (UniProt P07333)
CSK = CSK (UniProt P41240)

Row | SMILES | number of time points (ALK) | number of time points (ARAF) | number of time points (AURKA) | number of time points (AURKB) | number of time points (AURKC) | number of time points (BLK) | number of time points (BMX) | number of time points (BRAF) | number of time points (BRAF_V600E) | number of time points (BTK) | number of time points (CAMK2A) | number of time points (CAMK2G) | number of time points (CDK10) | number of time points (CDK2) | number of time points (CDK3) | number of time points (CDK5) | number of time points (CDK6) | number of time points (CHEK2) | number of time points (CSF1R) | number of time points (CSK)
1 | CN1CCN(c2cnc3c(C4CCN(C(=O)c5ccc(OC(F)(F)F)cc5N)CC4)ncnc3c2)CC1 (10 µM) | 0 | 0 | 0 | 0 | 0 | 0 | 0 | 0 | 0 | 0 | 0 | 0 | 0 | 0 | 0 | 0 | 0 | 0 | 0 | 0
2 | Nc1nc(F)nc2c1ncn2[C@@H]1O[C@H](CO)[C@@H](O)[C@@H]1O [Fludarabine] (10 µM) | 0 | 0 | 0 | 0 | 0 | 0 | 0 | 0 | 1 | 0 | 0 | 0 | 0 | 0 | 0 | 0 | 0 | 0 | 0 | 0
3 | CS(=O)(=O)Nc1cc(-c2ccc3ncnc(Nc4ccc(F)c(Cl)c4)c3c2)cnc1Cl (2.5 µM) | 0 | 0 | 0 | 0 | 0 | 0 | 2 | 0 | 2 | 0 | 0 | 0 | 0 | 0 | 0 | 0 | 0 | 0 | 0 | 0
4 | C[C@@H](c1ccc(-c2ccccc2)c(F)c1)c1cc(NC(=N)N2CCOCC2)on1 [Rimacalib] (10 µM) | 0 | 0 | 0 | 0 | 0 | 0 | 0 | 0 | 0 | 0 | 0 | 0 | 0 | 0 | 0 | 0 | 0 | 0 | 0 | 0
5 | Cc1c(NC(=O)c2cccn(-c3ccc(F)cc3)c2=O)ccc(Oc2ccnc(NC(=O)C3CC3)c2)c1C (2 µM) | 1 | 0 | 0 | 0 | 0 | 0 | 1 | 0 | 0 | 0 | 0 | 1 | 0 | 0 | 0 | 0 | 0 | 0 | 3 | 0
6 | O=S(=O)(NCCCN1c2ccccc2CCc2ccc(Cl)cc21)c1ccc(OC(F)(F)F)cc1 (2.5 µM) | 0 | 0 | 0 | 0 | 0 | 0 | 0 | 0 | 0 | 0 | 0 | 0 | 0 | 0 | 0 | 0 | 0 | 0 | 0 | 0
7 | CCN1CCN(Cc2ccc(-c3cc4c(N[C@H](C)c5ccccc5)ncnc4[nH]3)cc2)CC1 (2.5 µM) | 1 | 0 | 3 | 1 | 0 | 1 | 1 | 1 | 4 | 0 | 0 | 2 | 0 | 0 | 0 | 0 | 2 | 2 | 1 | 0
8 | O=C(Nc1cn[nH]c1-c1ccccn1)c1nn(C2CCNCC2)cc1Cl (10 µM) | 0 | 0 | 0 | 0 | 0 | 0 | 0 | 0 | 1 | 0 | 0 | 0 | 0 | 0 | 0 | 0 | 0 | 0 | 0 | 0
9 | N#Cc1c(C2CCNCC2)cc(-c2c(O)cccc2OCC2CC2)nc1N [ACHP (Hydrochloride)] (10 µM) | 0 | 0 | 0 | 0 | 0 | 0 | 0 | 0 | 3 | 0 | 0 | 0 | 0 | 0 | 0 | 0 | 0 | 0 | 0 | 0
10 | FC(F)c1nc2ccccc2n1-c1nc(N2CCOCC2)nc(N2CCOCC2)n1 (2 µM) | 0 | 0 | 0 | 0 | 0 | 0 | 0 | 0 | 4 | 0 | 0 | 0 | 0 | 0 | 0 | 0 | 0 | 1 | 0 | 0
11 | C[C@]1(O)CCN(c2nc(N3C[C@H](O)[C@@H](O)C3)cc(C(F)(F)F)c2C#N)C1 (10 µM) | 0 | 0 | 0 | 0 | 0 | 0 | 0 | 0 | 0 | 0 | 0 | 0 | 0 | 0 | 0 | 0 | 0 | 0 | 0 | 0
12 | CC(=O)NC1CC(n2cnc(NC(=O)Cc3ccc4ccccc4c3)c2)C1 (stereo not given) (10 µM) | 0 | 0 | 0 | 0 | 0 | 0 | 0 | 0 | 0 | 0 | 0 | 0 | 0 | 0 | 0 | 0 | 0 | 0 | 0 | 0
13 | Cn1cc(-c2ccc3nnc(Sc4ccc5ncccc5c4)n3n2)cn1 (10 µM) | 0 | 0 | 0 | 0 | 0 | 0 | 0 | 0 | 0 | 0 | 0 | 0 | 0 | 0 | 0 | 0 | 0 | 0 | 0 | 0
14 | CCCCCCCCCCCCC/C=C/[C@@H](O)[C@@H](N)CO [D-erythro-Sphingosine] (2.5 µM) | 0 | 0 | 0 | 0 | 0 | 0 | 0 | 0 | 0 | 0 | 0 | 0 | 0 | 0 | 0 | 0 | 0 | 0 | 0 | 0
15 | CCNc1nc(Nc2cc(F)c(C(=O)N3CCOCC3)cc2OC)ncc1C(F)(F)F [GNE-7915 (tosylate)] (10 µM) | 0 | 0 | 0 | 0 | 0 | 0 | 0 | 0 | 0 | 0 | 0 | 0 | 0 | 0 | 0 | 0 | 0 | 0 | 0 | 0
16 | Cn1cnc(Cn2ccc3ccc(CNCc4[nH]c5ccccc5c4[C@H]4NC(=O)c5ccc(O)cc54)cc32)c1 (10 µM) | 0 | 0 | 0 | 0 | 0 | 0 | 0 | 0 | 0 | 0 | 0 | 0 | 0 | 0 | 0 | 0 | 0 | 0 | 0 | 0
17 | c1cncc(CN2CCC(n3ncc4c(N5CCOCC5)nc(-c5ccc6[nH]ccc6c5)nc43)CC2)c1 (10 µM) | 0 | 0 | 4 | 4 | 0 | 2 | 4 | 1 | 4 | 0 | 0 | 0 | 0 | 0 | 0 | 0 | 0 | 2 | 0 | 0
18 | NC(=O)c1ccc(-c2nc(-c3ccc4c(c3)OCCO4)c(-c3ccccn3)[nH]2)cc1 (10 µM) | 0 | 0 | 0 | 0 | 0 | 0 | 0 | 0 | 0 | 0 | 0 | 0 | 0 | 0 | 0 | 0 | 0 | 0 | 0 | 0
19 | CCc1c(C(=O)NNC(=O)C(O)c2cc(F)cc(F)c2)ccc(O)c1C (stereo not given) (10 µM) | 0 | 0 | 0 | 0 | 0 | 0 | 0 | 0 | 0 | 0 | 0 | 0 | 0 | 0 | 0 | 0 | 0 | 0 | 0 | 0
20 | Cn1cc(-c2ccc3c(c2)CCN3C(=O)Cc2cccc(C(F)(F)F)c2)c2c(N)ncnc21 (2.5 µM) | 0 | 0 | 0 | 0 | 0 | 0 | 0 | 0 | 0 | 0 | 0 | 0 | 0 | 0 | 0 | 0 | 0 | 0 | 0 | 0
21 | COc1cc2ncnc(Nc3ccc(Cl)cc3F)c2cc1OC (10 µM) | 0 | 0 | 0 | 0 | 0 | 0 | 0 | 0 | 1 | 0 | 0 | 0 | 0 | 0 | 0 | 0 | 0 | 0 | 0 | 0
22 | NC(=O)c1ccc2[nH]ccc2c1 (10 µM) | 0 | 0 | 0 | 0 | 0 | 0 | 0 | 0 | 0 | 0 | 0 | 0 | 0 | 0 | 0 | 0 | 0 | 0 | 0 | 0
23 | Cc1[nH]c(/C=C2\C(=O)Nc3ccc(F)cc32)c(C)c1C(=O)N[C@H]1CCN(C(=O)N(C)C)C1 [Vorolanib] (10 µM) | 0 | 0 | 0 | 0 | 0 | 0 | 0 | 0 | 0 | 0 | 0 | 0 | 0 | 0 | 0 | 0 | 0 | 0 | 0 | 0
24 | OCCn1cc(-c2ccc3c(c2)CC/C3=N\O)c(-c2ccncc2)n1 (10 µM) | 0 | 0 | 0 | 0 | 0 | 0 | 0 | 0 | 0 | 0 | 0 | 0 | 0 | 0 | 0 | 0 | 0 | 0 | 0 | 0
25 | C[C@@]1(c2ncncc2F)NC(=O)c2cc(-c3cn[nH]c3)ccc21 (10 µM) | 0 | 0 | 0 | 0 | 0 | 0 | 0 | 0 | 0 | 0 | 0 | 0 | 0 | 0 | 0 | 0 | 0 | 0 | 0 | 0

Part of the list above, showing only number of time points (AURKB), number of time points (CDK5) and number of time points (BLK).
Row | SMILES | number of time points (AURKB) | number of time points (CDK5) | number of time points (BLK)
11 | C[C@]1(O)CCN(c2nc(N3C[C@H](O)[C@@H](O)C3)cc(C(F)(F)F)c2C#N)C1 (10 µM) | 0 | 0 | 0
23 | Cc1[nH]c(/C=C2\C(=O)Nc3ccc(F)cc32)c(C)c1C(=O)N[C@H]1CCN(C(=O)N(C)C)C1 [Vorolanib] (10 µM) | 0 | 0 | 0
